# In the supplement of paper PMC8732350:
# Where a name gives a salt, the structure may show the parent alone. ± gives the standard deviation of the averaged measurements. Some of the results follow. Most values lie within the scatter of the assay; repeated measurements hardly agree.
# System: A549
# Assay: surface PD-L1 immunofluorescence intensity relative to IFN-gamma-only control (ratio); higher = more PD-L1 expression
# Details: 10 µM; exposure time 24 h; IFN-gamma 100 ng/mL
row,SMILES,surface PD-L1 immunofluorescence intensity
1,NP(N)(=O)NC(=O)c1ccc(F)cc1 [Flurofamide],0.969
2,CC(C)(N)Cc1ccccc1 [Phentermine hydrochloride],0.953
3,CN1[C@@H]2CC[C@H]1C[C@@H](OC(=O)C(CO)c1ccccc1)C2 (stereo partly specified) [Atropine sulfate monohydrate],0.996
4,CN1[C@@H]2CC[C@H]1C[C@@H](OC(=O)C(CO)c1ccccc1)C2 (stereo partly specified) [Atropine],1.08
5,CC(C)C[C@H]1C(=O)N2CCC[C@H]2[C@]2(O)O[C@](NC(=O)[C@@H]3C=C4c5cccc6[nH]c(Br)c(c56)C[C@H]4N(C)C3)(C(C)C)C(=O)N12 [Bromocryptine mesylate],0.931
6,CC(C)C[C@H]1C(=O)N2CCC[C@H]2[C@]2(O)O[C@](NC(=O)[C@@H]3C=C4c5cccc6[nH]c(Br)c(c56)C[C@H]4N(C)C3)(C(C)C)C(=O)N12 [Bromocriptine mesylate],0.962
7,c1ccc(CCCN2CCN(CCOC(c3ccccc3)c3ccccc3)CC2)cc1,1.07
8,CCC1=C[C@H]2CN3CCc4c([nH]c5ccccc45)[C@](C(=O)OC)(C2)[C@H]13 [Catharanthine],0.936
9,C#CCOC(=O)C1=CCCN(C)C1 [Arecaidine propargyl ester tosylate],0.981
10,O=C(Cc1ccc(Cl)c(Cl)c1)N1CCCCC1CN1CCCC1 (stereo unspecified),1.11
11,CC(C)NCC(O)c1ccc(N)c(C#N)c1 (stereo unspecified) [Cimaterol],1.07
12,C=C(C)CN1CC[C@@]23c4c5ccc(O)c4O[C@H]2c2[nH]c4ccccc4c2C[C@]3(O)C1C5 [SDM25N hydrochloride],1.02
13,CNC(C)(C)Cc1ccccc1 [Mephentermine hemisulfate],1.07
14,C[C@]12CCC(=O)C(O)=C1CC[C@@H]1[C@@H]2CC[C@]2(C)C(=O)CC[C@@H]12 [Formestane],1 ± 0.015
15,c1ccc(C2CC2)c(OCC2=NCCN2)c1 [Cirazoline hydrochloride],0.974
16,"Clc1ccc(N2CCN(Cc3c[nH]c4ncccc34)CC2)cc1 [L-745,870 trihydrochloride]",1.09
17,CN1CCN(c2ccc3ccccc3n2)CC1 [N-Methylquipazine dimaleate],1
18,CC1OC(OC2/C=C/C=C/C=C/C=C/CC/C=C/C=C/[C@H](C)[C@@H](O)[C@@H](C)[C@H](C)OC(=O)CC(O)CC(O)CC(O)CCC(O)C(O)C[C@]3(O)CC(O)C(C(=O)O)C(C2)O3)C(O)C(N)C1O (stereo partly specified) [Nystatine],1.08

row,SMILES,surface PD-L1 immunofluorescence intensity
1,NCCCNCCSP(=O)(O)O [Amifostine],1
2,CCN(CC)C(=O)c1ccc(C2=CC3(CCNCC3)Oc3cccc(O)c32)cc1,1.1
3,NCCc1c[nH]c2ccc(C(N)=O)cc12 [5-Carboxamidotryptamine maleate],1.03
4,CC1(C)[C@@H](O)C[C@H]2[C@](C)(O)[C@@H]3CC[C@@H]4[C@@H](O)[C@@]3(C[C@@H](O)[C@@]21O)C[C@@]4(C)O [Grayanotoxin III],0.897
5,O=C(O)/C=C/CO [trans-4-Hydroxycrotonic acid],1.02
6,Cc1cc2c(C(C)C)c(O)c(O)c(C=O)c2c(O)c1-c1c(C)cc2c(C(C)C)c(O)c(O)c(C=O)c2c1O [Gossypol],1.02 ± 0.13
7,CC(C)(OO)c1ccccc1 [Cumene hydroperoxide],0.987
8,O=c1[nH]c2ccccc2n1C1CCN(CCCC(c2ccc(F)cc2)c2ccc(F)cc2)CC1 [Pimozide],1.04 ± 0.049
9,FC(F)(F)c1cccc(C2=CCN(CCc3ccc4ccccc4c3)CC2)c1 [Xaliproden hydrochloride],1.03
10,O=c1ccc2[nH]cc(C3=CCNCC3)c2[nH]1,1.13
11,CC(=O)NCCc1c[nH]c2ccccc12 [N-Acetyltryptamine],1.09
12,CC1=C2C[C@H]3[C@@H](CC=C4C[C@@H](O)CC[C@@]43C)[C@@H]2CC[C@]12O[C@@H]1C[C@H](C)CN[C@H]1[C@H]2C [Cyclopamine],1.01
13,C[C@]12CC[C@@H](O)C[C@H]1CC[C@@H]1[C@@H]2CC[C@]2(C)C(=O)CC[C@@H]12 [3-alpha-Hydroxy-5-beta-androstan-17-one],1.03
14,N[C@H](C(=O)O)c1cc(O)no1 [Ibotenic acid],0.973
15,CCN1CC2(OC(=O)c3ccccc3NC(C)=O)CCC(OC)C34C1C(CC23)C1(O)CC(OC)C2CC4C1(O)C2OC (stereo unspecified) [Lappaconite HBr],1.08
16,CN(C)C(=O)Oc1ccc[n+](C)c1 [Pyridostigmine iodide],0.935
17,C#CCN(C)[C@H](C)Cc1ccccc1 [Selegiline hydrochloride],0.955
18,CN1CCN(c2nc3ccccc3nc2Cl)CC1,0.967

# Seven entries from above, reformatted.
row	SMILES	surface PD-L1 immunofluorescence intensity
1	NCCCNCCSP(=O)(O)O [Amifostine]	1
5	O=C(O)/C=C/CO [trans-4-Hydroxycrotonic acid]	1.02
7	CC(C)(OO)c1ccccc1 [Cumene hydroperoxide]	0.987
9	FC(F)(F)c1cccc(C2=CCN(CCc3ccc4ccccc4c3)CC2)c1 [Xaliproden hydrochloride]	1.03
10	O=c1ccc2[nH]cc(C3=CCNCC3)c2[nH]1	1.13
12	CC1=C2C[C@H]3[C@@H](CC=C4C[C@@H](O)CC[C@@]43C)[C@@H]2CC[C@]12O[C@@H]1C[C@H](C)CN[C@H]1[C@H]2C [Cyclopamine]	1.01
18	CN1CCN(c2nc3ccccc3nc2Cl)CC1	0.967
